Source: patent US12303891B2, “Emulating vascular cellular physiologies” (CALIFORNIA NORTHSTATE COLLEGE OF PHARMACY, LLC, priority 2021, dated 2025)
For at least one compound, name, drawing or mass did not settle the structure.

Test system: PAH patients
Experiment: Responsiveness of female and male PAH patients to anti-PAH drugs
Format: in vivo, human

| SMILES | responsiveness of female PAH patients (female PAH patients, 'we have found') | responsiveness of male PAH patients (male PAH patients, 'we have also found') |
| --- | --- | --- |
| COC(c1ccccc1)(c1ccccc1)[C@H](Oc1nc(C)cc(C)n1)C(=O)O [ambrisentan] | more responsive |  |
| CN1CC(=O)N2[C@H](c3ccc4c(c3)OCO4)c3[nH]c4ccccc4c3C[C@@H]2C1=O [tadalafil] |  | more responsive |
